Test results from paper doi:10.1101/2022.01.24.477496.
Results are given in words; binding and its absence hold for the method and conditions named. Binding seen in cells or lysates may run through a third protein. Some results given as binding are weak or reduced against the parent protein; the word gives no strength. Where a sequence is shown, tags or fusion partners need not be part of it.

The chains behind the UniProt entries cited, without tags or fusion partners. Residues count along the entry.
UniProt P32121: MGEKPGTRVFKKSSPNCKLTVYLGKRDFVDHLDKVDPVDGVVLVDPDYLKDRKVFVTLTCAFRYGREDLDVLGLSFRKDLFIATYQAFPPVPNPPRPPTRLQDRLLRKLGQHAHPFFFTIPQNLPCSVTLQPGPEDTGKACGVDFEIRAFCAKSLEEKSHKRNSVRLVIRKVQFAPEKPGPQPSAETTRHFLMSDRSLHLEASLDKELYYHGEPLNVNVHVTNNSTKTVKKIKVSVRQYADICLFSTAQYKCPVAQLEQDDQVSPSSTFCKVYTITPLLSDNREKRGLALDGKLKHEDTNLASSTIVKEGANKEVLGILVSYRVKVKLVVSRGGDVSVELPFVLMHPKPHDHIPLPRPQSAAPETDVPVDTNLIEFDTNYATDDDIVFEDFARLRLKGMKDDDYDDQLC
UniProt P49407, residues 2-418: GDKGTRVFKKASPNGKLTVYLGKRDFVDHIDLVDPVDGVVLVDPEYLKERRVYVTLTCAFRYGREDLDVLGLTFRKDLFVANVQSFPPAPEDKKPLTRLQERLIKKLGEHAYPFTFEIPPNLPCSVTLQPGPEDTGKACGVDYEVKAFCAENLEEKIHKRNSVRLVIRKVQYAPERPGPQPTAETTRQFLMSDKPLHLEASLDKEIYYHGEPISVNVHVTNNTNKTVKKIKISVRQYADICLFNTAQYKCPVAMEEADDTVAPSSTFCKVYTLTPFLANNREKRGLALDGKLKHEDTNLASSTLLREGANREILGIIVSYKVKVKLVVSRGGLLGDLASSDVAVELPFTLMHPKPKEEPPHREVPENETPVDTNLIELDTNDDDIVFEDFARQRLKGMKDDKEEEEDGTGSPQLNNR

What was measured:
Assay in all cases: FRET or BRET
[1] = target: T1, SV2-Rluc8 (human) (UniProt P48546)
T1 sequence: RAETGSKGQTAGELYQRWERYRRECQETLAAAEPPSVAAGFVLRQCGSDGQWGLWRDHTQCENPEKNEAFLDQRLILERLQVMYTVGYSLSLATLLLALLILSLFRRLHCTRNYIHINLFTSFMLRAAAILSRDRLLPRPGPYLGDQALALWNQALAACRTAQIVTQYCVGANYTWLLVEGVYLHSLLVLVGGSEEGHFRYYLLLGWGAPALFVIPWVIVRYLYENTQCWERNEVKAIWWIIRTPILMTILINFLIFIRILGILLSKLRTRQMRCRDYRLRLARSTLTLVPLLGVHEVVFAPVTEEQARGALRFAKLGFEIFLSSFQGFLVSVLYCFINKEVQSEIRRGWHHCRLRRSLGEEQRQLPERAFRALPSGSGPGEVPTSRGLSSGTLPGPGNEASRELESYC

[2] = target: T2, SV4-Rluc8 (human) (UniProt P48546)
T2 sequence: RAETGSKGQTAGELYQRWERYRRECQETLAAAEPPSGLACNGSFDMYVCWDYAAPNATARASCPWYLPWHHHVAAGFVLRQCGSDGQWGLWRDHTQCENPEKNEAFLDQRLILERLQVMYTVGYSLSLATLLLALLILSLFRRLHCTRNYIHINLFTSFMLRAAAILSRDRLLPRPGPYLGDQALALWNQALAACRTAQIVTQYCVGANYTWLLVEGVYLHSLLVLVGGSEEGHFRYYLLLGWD

[3] = target: T3, SV1-Rluc8 (human) (UniProt P48546)
T3 sequence: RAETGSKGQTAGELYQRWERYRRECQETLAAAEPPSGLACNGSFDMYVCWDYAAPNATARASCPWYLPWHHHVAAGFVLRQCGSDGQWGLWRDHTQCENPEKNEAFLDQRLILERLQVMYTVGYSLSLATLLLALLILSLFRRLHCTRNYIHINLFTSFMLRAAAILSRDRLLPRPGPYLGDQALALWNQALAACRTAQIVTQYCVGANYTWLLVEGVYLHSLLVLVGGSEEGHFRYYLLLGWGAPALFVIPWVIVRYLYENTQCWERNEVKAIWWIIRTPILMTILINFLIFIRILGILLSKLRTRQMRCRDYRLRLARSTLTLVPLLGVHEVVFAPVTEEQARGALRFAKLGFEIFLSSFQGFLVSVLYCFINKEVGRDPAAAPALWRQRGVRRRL

[4] = target: T4, SV3-Rluc8 (human) (UniProt P48546)
T4 sequence: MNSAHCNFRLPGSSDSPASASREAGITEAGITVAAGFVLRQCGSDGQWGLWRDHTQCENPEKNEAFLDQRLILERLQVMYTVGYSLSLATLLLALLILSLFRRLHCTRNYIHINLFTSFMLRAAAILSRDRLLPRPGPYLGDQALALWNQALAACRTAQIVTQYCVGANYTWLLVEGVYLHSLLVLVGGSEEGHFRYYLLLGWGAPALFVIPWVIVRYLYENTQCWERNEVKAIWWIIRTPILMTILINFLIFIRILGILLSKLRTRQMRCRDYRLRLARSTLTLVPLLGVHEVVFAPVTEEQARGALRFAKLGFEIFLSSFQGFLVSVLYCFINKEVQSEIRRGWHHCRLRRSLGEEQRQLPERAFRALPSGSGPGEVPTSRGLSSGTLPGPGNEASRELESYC

[5] = target: T5, GIPR-Rluc8 (human) (UniProt P48546)
T5 sequence: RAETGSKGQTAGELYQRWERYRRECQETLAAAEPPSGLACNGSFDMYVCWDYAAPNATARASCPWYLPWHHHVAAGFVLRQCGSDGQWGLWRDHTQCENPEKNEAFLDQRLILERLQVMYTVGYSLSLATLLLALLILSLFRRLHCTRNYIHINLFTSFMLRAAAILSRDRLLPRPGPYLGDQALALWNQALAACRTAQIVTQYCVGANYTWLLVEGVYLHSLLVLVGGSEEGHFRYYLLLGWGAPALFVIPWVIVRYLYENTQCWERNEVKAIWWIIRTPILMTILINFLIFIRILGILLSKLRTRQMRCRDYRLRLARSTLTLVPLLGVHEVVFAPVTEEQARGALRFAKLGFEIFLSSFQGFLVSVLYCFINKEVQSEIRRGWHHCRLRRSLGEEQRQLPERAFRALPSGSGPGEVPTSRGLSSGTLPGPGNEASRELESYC

**Q.** Which binding [1] does the source give for “Venus-β-arrestin 2 (from UniProt P32121 1-409)” here?
**A.** no binding

**Q.** What about the binding [2] of the same substance?
**A.** no binding

**Q.** What about the binding [3] of the same substance?
**A.** no binding

**Q.** What about the binding [4] of the same substance?
**A.** no binding

**Q.** Which binding [1] does the source give for “Venus-β-arrestin 1 (from UniProt P49407 2-418)” here?
**A.** no binding

**Q.** And the binding [5]?
**A.** binds

**Q.** What about the binding [2] of the same substance?
**A.** no binding

**Q.** What about the binding [3] of the same substance?
**A.** no binding

**Q.** And the binding [4]?
**A.** no binding
